log2 fold change data for 29 targets are collected here from the supplement of paper PMC12819154, “High-throughput peptide-centric local stability assay extends protein–ligand identification to membrane proteins, tissues and bacteria” (Nature Structural & Molecular Biology, 2025).

The chains behind the UniProt entries cited, without tags or fusion partners. Where a name states a change or a piece, a line headed by the entry shows the natural chain unless it says otherwise.
UniProt Q9BTV7: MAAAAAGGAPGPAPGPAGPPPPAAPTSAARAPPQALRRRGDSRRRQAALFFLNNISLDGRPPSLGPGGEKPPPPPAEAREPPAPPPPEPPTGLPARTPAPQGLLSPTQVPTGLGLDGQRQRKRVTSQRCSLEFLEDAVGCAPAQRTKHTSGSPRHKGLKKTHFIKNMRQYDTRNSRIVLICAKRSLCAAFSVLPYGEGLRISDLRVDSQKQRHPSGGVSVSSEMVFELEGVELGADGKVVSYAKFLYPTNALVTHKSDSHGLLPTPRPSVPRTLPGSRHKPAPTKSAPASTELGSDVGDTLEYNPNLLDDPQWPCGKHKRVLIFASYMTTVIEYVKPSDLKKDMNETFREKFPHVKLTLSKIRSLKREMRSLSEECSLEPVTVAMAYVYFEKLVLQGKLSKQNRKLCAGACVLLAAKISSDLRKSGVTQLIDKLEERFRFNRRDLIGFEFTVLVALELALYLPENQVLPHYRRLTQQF
UniProt Q9BRF8, whole entry: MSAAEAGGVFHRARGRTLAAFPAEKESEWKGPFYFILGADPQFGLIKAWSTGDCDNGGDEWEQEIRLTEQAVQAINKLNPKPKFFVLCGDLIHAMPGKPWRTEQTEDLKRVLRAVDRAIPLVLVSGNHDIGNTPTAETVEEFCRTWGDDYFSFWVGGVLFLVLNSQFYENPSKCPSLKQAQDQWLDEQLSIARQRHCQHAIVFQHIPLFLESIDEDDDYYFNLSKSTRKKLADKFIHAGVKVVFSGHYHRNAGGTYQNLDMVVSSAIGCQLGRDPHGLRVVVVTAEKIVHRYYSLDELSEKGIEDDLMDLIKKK
UniProt Q9BW19: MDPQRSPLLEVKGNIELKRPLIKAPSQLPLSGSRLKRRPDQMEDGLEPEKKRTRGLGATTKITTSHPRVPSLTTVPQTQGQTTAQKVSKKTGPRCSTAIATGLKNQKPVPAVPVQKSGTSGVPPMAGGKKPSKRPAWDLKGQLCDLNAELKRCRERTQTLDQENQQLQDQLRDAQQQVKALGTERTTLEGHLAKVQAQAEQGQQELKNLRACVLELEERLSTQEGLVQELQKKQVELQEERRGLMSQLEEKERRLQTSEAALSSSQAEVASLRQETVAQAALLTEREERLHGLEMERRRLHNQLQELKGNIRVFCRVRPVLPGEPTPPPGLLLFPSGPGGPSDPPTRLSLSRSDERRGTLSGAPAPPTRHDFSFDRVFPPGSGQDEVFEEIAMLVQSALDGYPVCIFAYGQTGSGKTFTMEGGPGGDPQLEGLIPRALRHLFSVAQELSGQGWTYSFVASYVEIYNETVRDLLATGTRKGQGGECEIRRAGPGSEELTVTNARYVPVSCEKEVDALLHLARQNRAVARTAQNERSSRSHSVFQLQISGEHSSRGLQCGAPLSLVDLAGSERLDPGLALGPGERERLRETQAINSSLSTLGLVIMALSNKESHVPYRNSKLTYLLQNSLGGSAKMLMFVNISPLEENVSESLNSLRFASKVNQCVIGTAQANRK
UniProt Q99956: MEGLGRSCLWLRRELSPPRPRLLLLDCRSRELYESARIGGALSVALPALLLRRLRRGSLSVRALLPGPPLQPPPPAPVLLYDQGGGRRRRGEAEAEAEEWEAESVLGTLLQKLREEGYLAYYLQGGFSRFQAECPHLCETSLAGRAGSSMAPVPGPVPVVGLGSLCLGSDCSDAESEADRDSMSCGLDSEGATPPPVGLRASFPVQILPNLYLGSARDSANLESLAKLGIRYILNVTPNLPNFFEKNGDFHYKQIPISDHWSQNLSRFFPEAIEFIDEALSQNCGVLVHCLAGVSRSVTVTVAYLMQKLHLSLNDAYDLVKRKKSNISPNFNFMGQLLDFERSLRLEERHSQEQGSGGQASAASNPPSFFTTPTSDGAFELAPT
UniProt Q9BTK6, whole entry: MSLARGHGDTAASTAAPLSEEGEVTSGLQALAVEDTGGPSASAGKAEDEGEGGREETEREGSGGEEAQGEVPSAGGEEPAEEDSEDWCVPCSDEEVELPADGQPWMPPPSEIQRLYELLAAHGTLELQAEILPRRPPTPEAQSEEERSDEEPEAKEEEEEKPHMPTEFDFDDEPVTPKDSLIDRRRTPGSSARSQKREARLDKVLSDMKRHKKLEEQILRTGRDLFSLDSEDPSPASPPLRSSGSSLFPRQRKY
UniProt Q9BUL5: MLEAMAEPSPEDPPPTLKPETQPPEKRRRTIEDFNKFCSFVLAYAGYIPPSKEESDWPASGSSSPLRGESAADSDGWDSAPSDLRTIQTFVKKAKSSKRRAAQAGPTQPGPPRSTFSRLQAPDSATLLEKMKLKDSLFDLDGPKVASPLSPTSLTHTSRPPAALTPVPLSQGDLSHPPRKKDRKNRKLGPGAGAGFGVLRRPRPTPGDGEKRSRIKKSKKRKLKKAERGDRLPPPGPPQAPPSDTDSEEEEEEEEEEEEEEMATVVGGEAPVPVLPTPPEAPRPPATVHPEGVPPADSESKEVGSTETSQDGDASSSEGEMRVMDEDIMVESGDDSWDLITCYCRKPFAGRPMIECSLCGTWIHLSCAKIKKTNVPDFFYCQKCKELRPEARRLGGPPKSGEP
UniProt Q99988: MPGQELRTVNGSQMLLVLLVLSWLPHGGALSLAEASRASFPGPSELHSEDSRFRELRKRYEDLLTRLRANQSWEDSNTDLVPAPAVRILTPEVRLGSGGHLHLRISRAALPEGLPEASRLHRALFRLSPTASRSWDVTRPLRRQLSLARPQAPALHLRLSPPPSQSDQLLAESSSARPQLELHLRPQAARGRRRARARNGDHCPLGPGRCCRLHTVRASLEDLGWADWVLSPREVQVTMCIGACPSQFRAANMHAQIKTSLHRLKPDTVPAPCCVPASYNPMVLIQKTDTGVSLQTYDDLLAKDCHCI
UniProt Q9BVC3, whole entry: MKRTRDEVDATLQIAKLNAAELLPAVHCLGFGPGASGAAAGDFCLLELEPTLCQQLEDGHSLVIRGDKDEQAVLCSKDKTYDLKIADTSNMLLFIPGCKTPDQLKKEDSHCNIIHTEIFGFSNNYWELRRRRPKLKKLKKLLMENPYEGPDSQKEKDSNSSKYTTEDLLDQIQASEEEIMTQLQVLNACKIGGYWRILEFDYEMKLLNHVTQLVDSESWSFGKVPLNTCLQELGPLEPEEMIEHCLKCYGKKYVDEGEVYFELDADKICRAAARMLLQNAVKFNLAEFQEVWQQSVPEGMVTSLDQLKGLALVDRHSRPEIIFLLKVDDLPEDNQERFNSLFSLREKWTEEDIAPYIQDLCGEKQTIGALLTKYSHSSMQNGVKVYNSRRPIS
UniProt Q99504: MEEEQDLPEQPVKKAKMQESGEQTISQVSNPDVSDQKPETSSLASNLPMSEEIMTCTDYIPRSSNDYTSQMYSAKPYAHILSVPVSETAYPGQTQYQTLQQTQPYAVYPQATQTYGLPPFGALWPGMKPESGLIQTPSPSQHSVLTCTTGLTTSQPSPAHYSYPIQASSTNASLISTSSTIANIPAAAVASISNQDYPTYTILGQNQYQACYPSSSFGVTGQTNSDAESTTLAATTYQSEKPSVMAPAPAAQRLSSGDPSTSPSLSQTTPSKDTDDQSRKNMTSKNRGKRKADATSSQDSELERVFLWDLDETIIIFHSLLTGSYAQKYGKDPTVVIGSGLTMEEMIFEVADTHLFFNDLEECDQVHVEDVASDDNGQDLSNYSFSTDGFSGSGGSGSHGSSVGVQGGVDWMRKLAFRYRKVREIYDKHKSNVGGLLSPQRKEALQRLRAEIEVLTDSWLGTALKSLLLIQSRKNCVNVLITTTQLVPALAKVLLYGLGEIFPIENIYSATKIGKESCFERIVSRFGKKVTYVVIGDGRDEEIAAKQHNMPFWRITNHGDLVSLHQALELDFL
UniProt Q99683: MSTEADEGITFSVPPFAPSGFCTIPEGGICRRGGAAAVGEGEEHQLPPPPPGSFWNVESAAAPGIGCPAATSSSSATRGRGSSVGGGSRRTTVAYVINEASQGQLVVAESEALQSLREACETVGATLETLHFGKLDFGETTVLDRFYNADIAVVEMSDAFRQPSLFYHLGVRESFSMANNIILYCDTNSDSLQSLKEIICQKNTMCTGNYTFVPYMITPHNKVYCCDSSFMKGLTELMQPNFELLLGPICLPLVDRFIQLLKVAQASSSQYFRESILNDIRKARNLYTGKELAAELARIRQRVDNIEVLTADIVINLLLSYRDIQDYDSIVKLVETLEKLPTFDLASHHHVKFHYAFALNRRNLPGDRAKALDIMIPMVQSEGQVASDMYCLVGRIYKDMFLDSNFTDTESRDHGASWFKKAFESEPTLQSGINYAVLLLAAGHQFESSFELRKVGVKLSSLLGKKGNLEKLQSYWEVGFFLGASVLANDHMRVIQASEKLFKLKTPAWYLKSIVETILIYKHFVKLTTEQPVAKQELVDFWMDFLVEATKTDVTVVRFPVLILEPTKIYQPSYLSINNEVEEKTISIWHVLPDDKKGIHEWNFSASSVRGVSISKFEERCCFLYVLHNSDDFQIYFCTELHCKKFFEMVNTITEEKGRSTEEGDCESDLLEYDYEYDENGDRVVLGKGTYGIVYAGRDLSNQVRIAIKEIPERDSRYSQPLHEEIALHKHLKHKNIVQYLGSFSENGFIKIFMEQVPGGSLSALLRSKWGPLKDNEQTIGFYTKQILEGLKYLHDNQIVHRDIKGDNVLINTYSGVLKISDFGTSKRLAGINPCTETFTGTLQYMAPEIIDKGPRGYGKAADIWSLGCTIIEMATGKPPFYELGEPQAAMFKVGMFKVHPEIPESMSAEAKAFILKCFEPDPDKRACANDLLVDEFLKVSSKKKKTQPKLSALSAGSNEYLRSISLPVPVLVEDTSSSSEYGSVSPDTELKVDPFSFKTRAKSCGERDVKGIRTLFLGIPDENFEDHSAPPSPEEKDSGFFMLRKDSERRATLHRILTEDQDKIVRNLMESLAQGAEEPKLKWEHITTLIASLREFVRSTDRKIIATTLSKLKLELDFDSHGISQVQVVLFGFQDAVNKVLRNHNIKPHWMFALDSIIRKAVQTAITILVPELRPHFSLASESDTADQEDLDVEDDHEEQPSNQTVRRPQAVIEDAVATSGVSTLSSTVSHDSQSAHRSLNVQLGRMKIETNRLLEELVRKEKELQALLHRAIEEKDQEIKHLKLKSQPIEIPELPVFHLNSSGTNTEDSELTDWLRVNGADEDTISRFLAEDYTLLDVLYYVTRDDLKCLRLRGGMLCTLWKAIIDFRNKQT
UniProt Q99952: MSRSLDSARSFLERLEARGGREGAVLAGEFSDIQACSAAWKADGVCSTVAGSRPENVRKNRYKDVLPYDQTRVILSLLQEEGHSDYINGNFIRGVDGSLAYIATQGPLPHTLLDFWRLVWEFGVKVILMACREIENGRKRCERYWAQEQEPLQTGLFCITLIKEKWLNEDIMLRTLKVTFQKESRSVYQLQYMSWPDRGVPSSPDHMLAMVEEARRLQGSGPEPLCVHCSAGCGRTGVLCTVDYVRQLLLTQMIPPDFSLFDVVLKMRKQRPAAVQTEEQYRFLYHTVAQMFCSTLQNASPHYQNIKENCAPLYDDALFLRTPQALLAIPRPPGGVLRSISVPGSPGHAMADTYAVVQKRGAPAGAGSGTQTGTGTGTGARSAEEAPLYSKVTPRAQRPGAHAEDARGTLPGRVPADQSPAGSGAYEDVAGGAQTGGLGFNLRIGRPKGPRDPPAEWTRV
UniProt Q9BTX1: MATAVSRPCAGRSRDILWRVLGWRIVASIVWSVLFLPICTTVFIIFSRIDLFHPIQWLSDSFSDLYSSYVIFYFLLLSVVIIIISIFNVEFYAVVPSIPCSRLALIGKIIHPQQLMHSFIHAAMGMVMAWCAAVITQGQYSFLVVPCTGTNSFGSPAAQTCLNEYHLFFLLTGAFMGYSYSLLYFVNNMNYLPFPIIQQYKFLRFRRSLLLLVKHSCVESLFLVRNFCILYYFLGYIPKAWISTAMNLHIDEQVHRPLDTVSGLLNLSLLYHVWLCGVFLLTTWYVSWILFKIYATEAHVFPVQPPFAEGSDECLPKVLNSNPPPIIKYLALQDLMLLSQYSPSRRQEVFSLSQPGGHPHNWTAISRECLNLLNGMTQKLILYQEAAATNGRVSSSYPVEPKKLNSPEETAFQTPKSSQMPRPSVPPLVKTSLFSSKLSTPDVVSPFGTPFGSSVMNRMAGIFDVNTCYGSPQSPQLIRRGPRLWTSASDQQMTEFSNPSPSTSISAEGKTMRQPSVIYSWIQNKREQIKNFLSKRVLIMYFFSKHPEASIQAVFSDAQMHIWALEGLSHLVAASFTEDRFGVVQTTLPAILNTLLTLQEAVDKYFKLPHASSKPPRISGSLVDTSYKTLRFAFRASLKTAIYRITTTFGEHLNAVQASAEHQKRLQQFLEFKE
UniProt Q9BU20: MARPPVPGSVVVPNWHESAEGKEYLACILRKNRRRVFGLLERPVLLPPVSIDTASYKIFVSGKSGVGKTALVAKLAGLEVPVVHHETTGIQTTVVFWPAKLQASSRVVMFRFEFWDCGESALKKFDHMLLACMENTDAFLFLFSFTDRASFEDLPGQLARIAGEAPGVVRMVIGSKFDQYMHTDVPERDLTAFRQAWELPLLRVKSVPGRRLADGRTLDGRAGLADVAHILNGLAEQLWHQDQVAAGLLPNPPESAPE

The list shows a part of the results. Small differences around the control level are noise.

Compound in this test: CN[C@@H]1C[C@H]2O[C@@](C)([C@@H]1OC)n1c3ccccc3c3c4c(c5c6ccccc6n2c5c31)C(=O)NC4 [staurosporine]
Kind of test: log2 fold change of tryptic peptide abundance, ligand vs vehicle (limited proteolysis) (log2 ratio); higher = more trypsin-susceptible (destabilized). The settings on record: ligand concentration: 20 uM; sample: K562 cleared lysate; digestion: 4 min, 22 C (HT-PELSA RT4min, Orbitrap Astral).
For “CABLES2 (peptide sequence: FLYPTNALVTHK, peptide start residue: 245) (UniProt Q9BTV7)”, the log2 fold change is -0.189. In the case of “SARG (peptide sequence: TVTESSSSHPPEPQGLGLR, peptide start residue: 110) (UniProt Q9BW04)”, the log2 fold change is 0.536.

Take “UniProt Q9BUH6 (peptide sequence: FGLSAAEDITPR, peptide start residue: 64)”: the log2 fold change was found to be 0.239. To “ACO2 (peptide sequence: DGYAQILR, peptide start residue: 430) (UniProt Q99798)” belongs 0.283; to “DUSP23 (peptide sequence: FVQIVDEANAR, peptide start residue: 77) (UniProt Q9BVJ7)”, 0.442.

Consider “UniProt Q9BV86 (peptide sequence: TYLGEEGKR, peptide start residue: 102)”, for which the log2 fold change amounted to 0.225. Turning to “TRMT61B (peptide sequence: ELEDSSGDQGR, peptide start residue: 101) (UniProt Q9BVS5)”, the log2 fold change stood at 0.162. On to “CPPED1 (peptide sequence: LTEQAVQAINK, peptide start residue: 67) (UniProt Q9BRF8)”, for which the log2 fold change was determined as 1.02.

Consider “PRMT1 (peptide sequence: DVAIKEPLVDVVDPK, peptide start residue: 229) (UniProt Q99873)”, for which the log2 fold change was 0.366. “ALKBH7 (peptide sequence: TLPGPSWVR, peptide start residue: 11) (UniProt Q9BT30)”: the log2 fold change worked out at 0.284. In the case of “KIFC1 (peptide sequence: EVDALLHLAR, peptide start residue: 512) (UniProt Q9BW19)”, the log2 fold change is 0.271. To “YIPF4 (peptide sequence: ESTATTFLR, peptide start residue: 48) (UniProt Q9BSR8)” belongs 0.152; to “UniProt Q9BQ61 (peptide sequence: KQKTEDEVLTSK, peptide start residue: 135)”, -0.52. To “DUSP9 (peptide sequence: ASFPVQILPNLYLGSAR, peptide start residue: 201) (UniProt Q99956)” belongs -0.196; to “UniProt Q99879 (peptide sequence: HAVSEGTKAVTKYTSSK, peptide start residue: 110)”, 0.229; to “ZNF670 (peptide sequence: STYLGIHER, peptide start residue: 265) (UniProt Q9BS34)”, 0.408. The same measure for “KIF2C (peptide sequence: AHTPFRESK, peptide start residue: 535) (UniProt Q99661)”: 0.19. On to “UniProt Q9BTK6 (peptide sequence: SSGSSLFPR, peptide start residue: 242)”, for which the log2 fold change came to 0.0833. For “TUBB6 (peptide sequence: AALVDLEPGTMDSVR, peptide start residue: 63) (UniProt Q9BUF5)”, the log2 fold change is -0.203. The same measure for “PHF23 (peptide sequence: RTIEDFNK, peptide start residue: 29) (UniProt Q9BUL5)”: 0.587; for “GDF15 (peptide sequence: AANMHAQIK, peptide start residue: 250) (UniProt Q99988)”: 0.524; for “DSCC1 (peptide sequence: QTIGALLTK, peptide start residue: 365) (UniProt Q9BVC3)”: 0.281. In the case of “EYA3 (peptide sequence: QHNMPFWR, peptide start residue: 547) (UniProt Q99504)”, the log2 fold change is 0.357.

Consider “UniProt Q9BVL2 (peptide sequence: KMFLGDAVDVFETRR, peptide start residue: 422)”, for which the log2 fold change came to 0.972. To “UniProt Q99683 (peptide sequence: DSGFFMLR, peptide start residue: 1038)” belongs 0.102; to “PTPN18 (peptide sequence: ADGVCSTVAGSRPENVR, peptide start residue: 42) (UniProt Q99952)”, 0.287; to “UniProt Q9BTX1 (peptide sequence: VSSSYPVEPK, peptide start residue: 393)”, -0.0846. To “CPLANE2 (peptide sequence: IAGEAPGVVR, peptide start residue: 161) (UniProt Q9BU20)” belongs 0.268; to “UniProt Q99766 (peptide sequence: AASEWLLR, peptide start residue: 65)”, 0.256.
